Where “and” joins values, the source holds several entries; their conditions need not be identical. Equal values may be shown once. Screen size: about 390,000 compounds; about 820 (0.21%) were called active. Inconclusive results, whose numbers are uncertain, are shown with a selection of clear calls. The call rests on the fitted dose curve; in most records, active means well fitted inhibition curve with a large enough effect; inconclusive means small, poorly fitted or top-dose-only effect, or another doubt; inactive means no such curve, though single readings can be large or run the other way. A potency beside an inconclusive call is a rough fit, not a confirmed value. More than one record can exist for a structure, and the calls need not agree.
Each molecule was assayed against Histone acetyltransferase KAT2A (Homo sapiens) (UniProt Q92830) (assay: qHTS Assay for Inhibitors of GCN5L2). Conditions: GCN5L2 HAT assay, ThioGlo1 CoA-SH fluorescence; series mostly up to 58.9 µM.
Method in brief: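 Free CoA generated was detected with ThioGlo1 (50uM) fluorescence at Ex340nm/Em540nm, read immediately and after 20 min at room temperature. Enzyme, 20 nM in HEPES pH 7.5 buffer, saw compounds 15 min before adding 75uM H3(1-25) peptide and 70uM acetyl-CoA.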
Potency means the concentration at half of the fitted maximal effect.

The chains behind the UniProt entries cited, without tags or fusion partners.
UniProt Q92830, whole entry, looked up: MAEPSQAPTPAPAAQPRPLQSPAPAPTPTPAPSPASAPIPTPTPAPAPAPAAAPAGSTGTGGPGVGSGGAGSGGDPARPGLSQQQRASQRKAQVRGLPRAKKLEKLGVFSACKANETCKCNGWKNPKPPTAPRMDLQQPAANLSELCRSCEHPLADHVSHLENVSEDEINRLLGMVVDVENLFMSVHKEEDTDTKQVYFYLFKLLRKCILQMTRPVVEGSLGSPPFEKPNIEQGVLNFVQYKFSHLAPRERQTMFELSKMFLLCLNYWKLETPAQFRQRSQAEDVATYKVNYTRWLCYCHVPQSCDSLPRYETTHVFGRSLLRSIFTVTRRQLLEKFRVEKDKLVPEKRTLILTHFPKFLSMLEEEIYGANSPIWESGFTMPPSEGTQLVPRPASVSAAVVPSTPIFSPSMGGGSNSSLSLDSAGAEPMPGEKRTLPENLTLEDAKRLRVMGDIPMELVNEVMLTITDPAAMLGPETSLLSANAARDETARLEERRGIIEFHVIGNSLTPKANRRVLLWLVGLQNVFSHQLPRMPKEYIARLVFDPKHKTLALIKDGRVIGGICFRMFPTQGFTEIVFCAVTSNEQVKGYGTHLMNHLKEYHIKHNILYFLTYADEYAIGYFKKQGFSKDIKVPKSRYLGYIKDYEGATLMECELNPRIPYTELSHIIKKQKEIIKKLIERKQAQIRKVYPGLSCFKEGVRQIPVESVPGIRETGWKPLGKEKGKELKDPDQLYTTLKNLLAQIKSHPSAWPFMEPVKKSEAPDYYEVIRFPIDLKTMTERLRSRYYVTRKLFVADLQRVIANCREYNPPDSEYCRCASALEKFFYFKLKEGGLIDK

| SMILES | Potency |
| --- | --- |
| Cc1ccc2c(c1)/C(=C/c1ccccc1)C(=O)N2 | inactive |
| CC1CCN(S(=O)(=O)c2ccc(NC(=O)CSc3ncccc3C(=O)O)cc2)CC1 | inconclusive: 7.08 µM [inhibitor, single point] |
| CCOC(=O)C(Oc1ccc2c(-c3ccccc3)cc(=O)oc2c1C)c1ccccc1 (stereo not drawn) | inconclusive: 8.91 µM [inhibitor, single point] |
| O=C(CCc1nnc2ccc(NCc3ccco3)nn12)Nc1ccc(F)cc1 | inconclusive: 5.01 µM [inhibitor, partial curve] |
| OCCN1CCN(CCC=C2c3ccccc3Sc3ccc(Cl)cc32)CC1 | inconclusive: 17.8 µM [inhibitor, single point] |
| CC(C)(C)c1nnc(NC(=O)c2ccc3c(c2)OCO3)s1 | inconclusive: 25.1 µM [inhibitor, single point] |
| Cc1nn(C)c(=O)n1-c1ccc(Oc2ccccc2)cc1 | inconclusive: 39.8 µM [inhibitor, single point] |
| CCOc1ccc(OCC)c(NC(=O)c2cc(-c3cccs3)nc3ccccc23)c1 | inactive |
| Cc1cc(=O)oc2cc(OCC(=O)Nc3ccc(CN4CCOCC4)cc3)ccc12 | inconclusive: 10 µM [inhibitor, partial curve, poor fit] |
| COCCN(C(=O)COC(=O)CCOc1cccc(C)c1)c1c(N)n(Cc2ccccc2)c(=O)[nH]c1=O | inactive |
| O=C(CSc1nnc2ccc(-c3cccnc3)nn12)Nc1ccccc1 | inconclusive: 8.91 µM [inhibitor, single point] |
| CC1CCN(CCOc2cc(Cl)ccc2Cl)CC1 | inactive |
| O=c1c2ccccc2ncn1-c1ccccc1F | inconclusive: 0.126 µM [inhibitor, partial curve, poor fit] |
| Cc1ccc(CNC(=O)CCCc2nnc3n(CC(C)C)c(=O)c4sccc4n23)cc1 | inactive |
| COc1ccc2nc(SCCOC(=O)Nc3ccc(Cl)cc3)nc(C)c2c1 | inconclusive: 10 µM [inhibitor, partial curve, poor fit] |
| O=C(Cn1ncc2c3ccccc3n(Cc3cccc(Cl)c3)c2c1=O)NCC1CCCO1 (stereo not drawn) | inconclusive: 20 µM [inhibitor, partial curve] |
| CSc1ccc(C2C(C#N)=C(N)Oc3c2ccc(=O)c2c(C)oc(C)c32)cc1 (stereo not drawn) | inconclusive: 28.2 µM [inhibitor, single point] |
| CN(C)CCC1c2ccc(Cl)cc2CCc2cccnc21 (stereo not drawn) (tested in a mixture with another compound) | inconclusive: 8.91 µM [inhibitor, single point] |
| CCCCN(C(=O)c1ccccc1OCc1ccc(F)cc1)c1c(N)n(CC(C)C)c(=O)[nH]c1=O | inconclusive: 0.199 µM [inhibitor, full curve, poor fit] |
| COc1cccc(CN2CCC(Oc3ccc(C(=O)N4CCCCC4)cc3)CC2)c1 | inconclusive: 1.12 µM [inhibitor, full curve, poor fit] |
| C/C(=N\NC(=O)COc1ccccc1-c1ccccc1)c1ccccn1 | inactive |
| CCCC(=O)Nc1ccccc1C(=O)OCc1cc(=O)n2nc(C(C)C)sc2n1 | inactive |

Random excerpt: 4 records from the list

| SMILES | Potency |
| --- | --- |
| CC(C)(C)c1nnc(NC(=O)c2ccc3c(c2)OCO3)s1 | inconclusive: 25.1 µM [inhibitor, single point] |
| Cc1nn(C)c(=O)n1-c1ccc(Oc2ccccc2)cc1 | inconclusive: 39.8 µM [inhibitor, single point] |
| COc1cccc(CN2CCC(Oc3ccc(C(=O)N4CCCCC4)cc3)CC2)c1 | inconclusive: 1.12 µM [inhibitor, full curve, poor fit] |
| COCCN(C(=O)COC(=O)CCOc1cccc(C)c1)c1c(N)n(Cc2ccccc2)c(=O)[nH]c1=O | inactive |

(further entries)

| SMILES | Potency |
| --- | --- |
| CCC(NC(=O)c1cc(COc2ccc(OC)cc2Cl)on1)c1ccncc1 (stereo not drawn) | inconclusive: 14.1 µM [inhibitor, partial curve] |
| O=C(NNc1c([N+](=O)[O-])cc(C(F)(F)F)cc1[N+](=O)[O-])c1ccco1 | inconclusive: 0.631 µM [inhibitor, single point] |
| CN(Cc1ccccc1)C(=O)Cn1c(=O)c2cccn2c2cccnc21 | inconclusive: 3.16 µM [inhibitor, partial curve, poor fit] |
| O=C(CCC1CCCCC1)Nc1ccccc1-c1ccccc1 | active: 3.16 µM |
| Nc1nc(SCc2ccccc2)n[nH]1 | inconclusive: 0.794 µM [inhibitor, single point] |
| C/C=C(\C)CN1CCN(c2cccc(C)c2C)CC1 | inconclusive: 39.8 µM [inhibitor, single point] |
| CC1(COc2ccc(CC3SC(=O)NC3=O)cc2)CCCCC1 (stereo not drawn) | active: 31.6 µM and active: 25.1 µM |
| CCc1ccc(C2C(C#N)=C(N)SC(N)=C2C#N)s1 | inconclusive: 25.1 µM [inhibitor, single point] |
| CC(CNC(=O)c1cccnc1)NC(=O)c1cccnc1 (stereo not drawn) | inactive |
| COc1ccc(C(=O)NCCOc2cccc(Oc3ccccc3)c2)cc1OC | inconclusive: 28.2 µM [inhibitor, single point] |
| O=C(c1cc(-c2ccncc2)nc2ccccc12)N1CCN(c2ccccc2O)CC1 | inconclusive: 8.91 µM [inhibitor, single point] |
| O=C(Nc1ccc2oc(-c3ccc4ccccc4c3)nc2c1)c1cc(Cl)ccc1Cl | inconclusive: 35.5 µM [inhibitor, single point] |
| Cc1csc(CNc2ncnc3ccc(-c4ccc5c(c4)OCO5)cc23)c1 | inactive |
| COCCn1c(SCC(=O)c2ccc(F)cc2)nc2cc(C(=O)NC3CCCC3)ccc2c1=O | inactive |
| Cc1ccc(NC(=O)c2sc3ccccc3c2Cl)nc1 | inconclusive: 1.78 µM [inhibitor, single point] |
| CCOC(=O)NC1(NCC(C)C)Oc2ccccc2O1 | inactive |
| COc1ccc(/C=C2\C(=O)NC(=S)N2C(=O)c2ccc(C)cc2)cc1 | inconclusive: 17.8 µM [inhibitor, partial curve] |
| O=c1c2cc(N3CCOCC3)ccc2[nH]c(=S)n1CC1CCCO1 (stereo not drawn) | inconclusive: 12.6 µM [inhibitor, partial curve, poor fit] |
| Cc1ccc(NC(=O)C(C)Sc2nc3c(c(=O)[nH]2)CCCC3)cc1Cl (stereo not drawn) | inconclusive: 20 µM [inhibitor, partial curve] |
| COc1ccccc1-c1nnc(C2CCN(S(=O)(=O)c3cccc([N+](=O)[O-])c3)CC2)o1 | inactive |
| COc1ccc(-n2c(=O)c3c(c4cc(OC)ccc4n3C)n(CC(=O)N3CCCC3)c2=O)cc1 | inconclusive: 25.1 µM [inhibitor, single point] |
